Measurements reported in the supplement of paper PMC11006884.
Most of the targets with a hit are listed elsewhere, so they are rarer here than in the full data. This is a noisy data set. This is a selection; strong and weak results do not stand in their true shares.

The chains behind the UniProt entries cited, without tags or fusion partners. Where a name states a change or a piece, a line headed by the entry shows the natural chain unless it says otherwise.
UniProt O00410: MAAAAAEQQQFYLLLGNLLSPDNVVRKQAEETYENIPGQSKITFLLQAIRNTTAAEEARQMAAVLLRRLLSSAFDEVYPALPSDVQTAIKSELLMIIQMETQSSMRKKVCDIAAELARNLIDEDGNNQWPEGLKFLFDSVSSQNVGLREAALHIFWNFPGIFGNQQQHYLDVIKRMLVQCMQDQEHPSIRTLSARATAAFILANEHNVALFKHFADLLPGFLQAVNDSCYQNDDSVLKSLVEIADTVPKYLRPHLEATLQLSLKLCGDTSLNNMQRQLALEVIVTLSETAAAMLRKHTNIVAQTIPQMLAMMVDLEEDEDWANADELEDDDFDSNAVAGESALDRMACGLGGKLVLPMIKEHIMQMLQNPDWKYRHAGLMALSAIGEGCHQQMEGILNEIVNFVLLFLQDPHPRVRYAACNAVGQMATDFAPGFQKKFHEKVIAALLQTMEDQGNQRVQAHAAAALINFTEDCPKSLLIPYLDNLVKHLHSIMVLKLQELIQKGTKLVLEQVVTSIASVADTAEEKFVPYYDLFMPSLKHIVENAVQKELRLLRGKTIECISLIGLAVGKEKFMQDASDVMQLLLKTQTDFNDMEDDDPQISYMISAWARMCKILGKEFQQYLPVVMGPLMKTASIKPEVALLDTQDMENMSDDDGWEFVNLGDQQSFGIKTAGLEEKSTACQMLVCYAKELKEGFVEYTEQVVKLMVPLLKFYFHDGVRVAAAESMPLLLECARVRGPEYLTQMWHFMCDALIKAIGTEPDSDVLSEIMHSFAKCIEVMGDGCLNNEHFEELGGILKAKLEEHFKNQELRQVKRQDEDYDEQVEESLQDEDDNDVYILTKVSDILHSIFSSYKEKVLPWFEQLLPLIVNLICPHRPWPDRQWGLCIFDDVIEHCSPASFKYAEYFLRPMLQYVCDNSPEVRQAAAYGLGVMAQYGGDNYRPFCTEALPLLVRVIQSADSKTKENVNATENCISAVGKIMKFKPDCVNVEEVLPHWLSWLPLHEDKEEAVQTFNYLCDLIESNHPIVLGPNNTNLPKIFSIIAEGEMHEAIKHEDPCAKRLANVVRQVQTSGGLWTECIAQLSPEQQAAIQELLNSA
UniProt O43175: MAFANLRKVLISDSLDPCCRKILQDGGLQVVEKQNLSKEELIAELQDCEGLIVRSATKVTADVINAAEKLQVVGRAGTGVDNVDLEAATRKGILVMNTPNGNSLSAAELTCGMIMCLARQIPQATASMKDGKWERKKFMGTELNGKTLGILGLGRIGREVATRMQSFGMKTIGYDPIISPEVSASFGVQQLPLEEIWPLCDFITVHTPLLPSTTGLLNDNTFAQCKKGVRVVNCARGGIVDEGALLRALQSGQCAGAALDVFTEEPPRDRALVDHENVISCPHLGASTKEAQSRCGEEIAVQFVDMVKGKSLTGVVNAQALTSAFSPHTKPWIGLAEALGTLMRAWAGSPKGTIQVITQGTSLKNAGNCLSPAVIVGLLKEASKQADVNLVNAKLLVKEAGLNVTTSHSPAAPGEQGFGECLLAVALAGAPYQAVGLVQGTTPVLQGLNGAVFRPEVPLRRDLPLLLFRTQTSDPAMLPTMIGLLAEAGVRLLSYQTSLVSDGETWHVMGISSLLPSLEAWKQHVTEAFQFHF
UniProt O14654: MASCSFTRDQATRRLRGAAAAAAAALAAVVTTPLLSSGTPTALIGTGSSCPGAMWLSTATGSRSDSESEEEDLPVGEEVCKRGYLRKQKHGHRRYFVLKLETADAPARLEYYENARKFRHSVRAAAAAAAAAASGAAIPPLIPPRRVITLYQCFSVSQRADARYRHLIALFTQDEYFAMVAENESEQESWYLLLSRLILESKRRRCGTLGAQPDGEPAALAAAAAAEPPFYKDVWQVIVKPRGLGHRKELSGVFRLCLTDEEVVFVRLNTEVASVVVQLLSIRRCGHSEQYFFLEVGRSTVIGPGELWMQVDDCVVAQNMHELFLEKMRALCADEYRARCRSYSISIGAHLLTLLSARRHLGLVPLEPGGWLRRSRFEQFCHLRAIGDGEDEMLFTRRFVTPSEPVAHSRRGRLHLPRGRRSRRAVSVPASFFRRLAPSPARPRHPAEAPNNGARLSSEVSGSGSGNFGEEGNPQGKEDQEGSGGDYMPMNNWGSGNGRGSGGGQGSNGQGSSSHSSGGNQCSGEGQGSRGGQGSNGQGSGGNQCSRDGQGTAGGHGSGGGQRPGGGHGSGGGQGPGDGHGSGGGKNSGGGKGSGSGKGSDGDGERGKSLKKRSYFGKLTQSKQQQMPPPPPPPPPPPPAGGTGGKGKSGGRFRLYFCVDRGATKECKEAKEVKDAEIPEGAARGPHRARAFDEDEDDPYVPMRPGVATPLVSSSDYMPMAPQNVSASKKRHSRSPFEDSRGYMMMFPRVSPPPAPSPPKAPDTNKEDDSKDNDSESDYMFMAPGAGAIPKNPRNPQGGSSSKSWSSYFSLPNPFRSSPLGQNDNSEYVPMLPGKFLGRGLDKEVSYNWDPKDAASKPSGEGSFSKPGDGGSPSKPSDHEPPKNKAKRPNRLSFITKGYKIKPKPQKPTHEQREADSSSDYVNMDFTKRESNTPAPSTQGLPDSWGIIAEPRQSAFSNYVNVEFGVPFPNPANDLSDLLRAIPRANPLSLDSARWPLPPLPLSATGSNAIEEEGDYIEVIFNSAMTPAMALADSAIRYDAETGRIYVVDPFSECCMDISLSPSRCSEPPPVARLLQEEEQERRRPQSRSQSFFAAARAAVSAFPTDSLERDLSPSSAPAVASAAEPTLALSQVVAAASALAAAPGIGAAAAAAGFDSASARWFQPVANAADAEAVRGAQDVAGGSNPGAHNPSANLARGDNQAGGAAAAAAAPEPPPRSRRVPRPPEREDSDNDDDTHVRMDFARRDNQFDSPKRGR
UniProt O00151: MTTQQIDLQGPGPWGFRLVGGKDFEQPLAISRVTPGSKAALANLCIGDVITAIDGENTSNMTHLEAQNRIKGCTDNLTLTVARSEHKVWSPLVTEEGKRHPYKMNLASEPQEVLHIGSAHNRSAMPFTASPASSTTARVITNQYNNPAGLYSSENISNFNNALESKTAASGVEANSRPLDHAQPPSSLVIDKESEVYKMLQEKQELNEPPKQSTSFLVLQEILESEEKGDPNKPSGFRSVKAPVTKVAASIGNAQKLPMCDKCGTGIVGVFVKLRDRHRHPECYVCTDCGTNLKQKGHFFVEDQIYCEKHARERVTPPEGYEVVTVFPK
UniProt O14880: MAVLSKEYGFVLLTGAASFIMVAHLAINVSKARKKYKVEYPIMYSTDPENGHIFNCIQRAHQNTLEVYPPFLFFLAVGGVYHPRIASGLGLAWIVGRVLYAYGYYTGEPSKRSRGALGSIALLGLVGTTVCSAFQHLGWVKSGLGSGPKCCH
UniProt O15381: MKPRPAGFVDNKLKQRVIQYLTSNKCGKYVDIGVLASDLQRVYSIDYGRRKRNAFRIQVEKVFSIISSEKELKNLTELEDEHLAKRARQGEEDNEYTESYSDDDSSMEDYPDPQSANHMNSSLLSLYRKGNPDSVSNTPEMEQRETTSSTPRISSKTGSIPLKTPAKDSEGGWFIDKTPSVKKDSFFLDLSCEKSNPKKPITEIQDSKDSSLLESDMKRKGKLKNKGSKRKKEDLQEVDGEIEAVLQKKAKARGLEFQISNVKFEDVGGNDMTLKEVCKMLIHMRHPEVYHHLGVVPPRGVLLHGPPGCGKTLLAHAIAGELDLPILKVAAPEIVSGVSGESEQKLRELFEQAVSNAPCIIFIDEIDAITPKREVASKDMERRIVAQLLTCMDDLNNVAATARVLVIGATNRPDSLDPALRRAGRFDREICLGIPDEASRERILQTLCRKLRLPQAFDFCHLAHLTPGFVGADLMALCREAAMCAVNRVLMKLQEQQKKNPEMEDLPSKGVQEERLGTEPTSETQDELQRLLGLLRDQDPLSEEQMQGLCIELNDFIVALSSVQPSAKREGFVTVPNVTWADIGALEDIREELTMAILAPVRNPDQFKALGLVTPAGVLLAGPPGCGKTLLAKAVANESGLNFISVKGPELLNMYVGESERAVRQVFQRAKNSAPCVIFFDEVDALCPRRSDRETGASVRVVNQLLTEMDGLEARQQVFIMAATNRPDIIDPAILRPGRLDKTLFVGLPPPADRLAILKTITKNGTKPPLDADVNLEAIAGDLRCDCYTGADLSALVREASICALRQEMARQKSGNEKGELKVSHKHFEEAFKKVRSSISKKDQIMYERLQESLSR
UniProt O15173: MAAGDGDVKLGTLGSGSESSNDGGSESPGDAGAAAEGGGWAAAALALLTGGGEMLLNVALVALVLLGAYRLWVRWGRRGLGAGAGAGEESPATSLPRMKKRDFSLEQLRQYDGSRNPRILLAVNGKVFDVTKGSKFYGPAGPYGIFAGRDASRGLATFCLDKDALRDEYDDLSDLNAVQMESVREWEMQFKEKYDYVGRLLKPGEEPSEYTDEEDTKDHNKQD
UniProt O43159: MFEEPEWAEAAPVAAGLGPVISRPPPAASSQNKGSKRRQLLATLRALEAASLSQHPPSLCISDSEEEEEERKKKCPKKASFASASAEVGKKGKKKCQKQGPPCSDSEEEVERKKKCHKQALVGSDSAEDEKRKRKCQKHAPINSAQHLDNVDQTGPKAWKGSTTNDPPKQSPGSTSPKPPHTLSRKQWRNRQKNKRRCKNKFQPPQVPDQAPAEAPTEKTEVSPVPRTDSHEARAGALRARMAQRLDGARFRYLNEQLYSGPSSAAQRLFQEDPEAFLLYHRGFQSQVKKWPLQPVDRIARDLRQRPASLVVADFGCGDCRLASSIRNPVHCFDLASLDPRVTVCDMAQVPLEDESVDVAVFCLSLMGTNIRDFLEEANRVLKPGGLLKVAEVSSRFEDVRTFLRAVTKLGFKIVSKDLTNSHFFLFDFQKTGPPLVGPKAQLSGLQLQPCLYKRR
UniProt O00217, whole entry: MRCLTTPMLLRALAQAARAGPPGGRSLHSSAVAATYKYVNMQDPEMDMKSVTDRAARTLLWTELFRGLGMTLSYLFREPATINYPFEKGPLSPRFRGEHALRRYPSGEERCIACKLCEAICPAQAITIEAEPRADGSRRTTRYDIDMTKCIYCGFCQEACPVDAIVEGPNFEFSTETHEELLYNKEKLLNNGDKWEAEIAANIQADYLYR
UniProt B3KU38: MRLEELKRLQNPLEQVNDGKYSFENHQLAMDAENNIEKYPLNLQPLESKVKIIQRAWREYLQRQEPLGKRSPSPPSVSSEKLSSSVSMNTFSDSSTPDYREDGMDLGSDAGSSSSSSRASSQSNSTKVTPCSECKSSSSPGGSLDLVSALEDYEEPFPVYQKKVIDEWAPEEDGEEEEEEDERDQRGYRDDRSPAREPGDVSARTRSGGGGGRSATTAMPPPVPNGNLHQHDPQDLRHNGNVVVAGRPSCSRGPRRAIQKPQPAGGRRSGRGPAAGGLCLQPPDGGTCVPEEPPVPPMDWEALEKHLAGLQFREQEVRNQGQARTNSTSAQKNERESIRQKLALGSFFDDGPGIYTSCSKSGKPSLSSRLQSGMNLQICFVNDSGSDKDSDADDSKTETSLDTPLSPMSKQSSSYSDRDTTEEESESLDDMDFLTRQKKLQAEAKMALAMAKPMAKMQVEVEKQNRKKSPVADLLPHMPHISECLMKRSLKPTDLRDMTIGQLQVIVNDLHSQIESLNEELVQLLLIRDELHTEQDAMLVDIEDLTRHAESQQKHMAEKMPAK
UniProt O43164: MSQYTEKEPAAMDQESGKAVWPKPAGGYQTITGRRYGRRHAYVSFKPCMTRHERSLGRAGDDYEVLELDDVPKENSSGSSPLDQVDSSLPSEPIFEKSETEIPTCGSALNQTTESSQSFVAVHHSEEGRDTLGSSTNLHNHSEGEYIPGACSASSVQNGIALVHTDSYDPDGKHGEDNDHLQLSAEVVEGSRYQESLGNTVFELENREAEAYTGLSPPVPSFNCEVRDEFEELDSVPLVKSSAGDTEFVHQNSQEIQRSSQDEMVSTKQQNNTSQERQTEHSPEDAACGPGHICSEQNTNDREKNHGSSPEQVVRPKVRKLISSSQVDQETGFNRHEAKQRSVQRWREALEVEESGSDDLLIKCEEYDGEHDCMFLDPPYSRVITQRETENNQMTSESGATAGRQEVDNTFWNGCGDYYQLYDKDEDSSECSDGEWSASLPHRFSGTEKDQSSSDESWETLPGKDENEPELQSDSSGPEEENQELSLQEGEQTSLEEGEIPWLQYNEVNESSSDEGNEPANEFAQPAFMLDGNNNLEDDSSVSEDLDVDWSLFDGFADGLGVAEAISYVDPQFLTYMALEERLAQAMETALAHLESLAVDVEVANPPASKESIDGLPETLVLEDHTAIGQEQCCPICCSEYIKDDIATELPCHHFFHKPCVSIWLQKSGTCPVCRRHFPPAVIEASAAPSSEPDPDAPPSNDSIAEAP

What follows are targets tested with COC(=O)/C=C/c1ccccc1 [methyl cinnamate] (assay: log2 ratio of iodoacetamide-alkyne labeling of the cysteine site, DMSO over compound (competition); higher = stronger covalent engagement of the cysteine by the compound, active = 1 or more). Conditions: 500 µM; treatment time 1 h; system: HEK293T cell lysate.
How it was run: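 The log2 competition ratio per cysteine is defined as mean reporter intensity in control channels over mean reporter intensity in compound channels. Lysate from HEK293T cells (2 mg/mL) received electrophile (500 µM) or vehicle for 1 h at ambient temperature, followed by iodoacetamide alkyne for 1 h. Samples were clicked to sCIP-TMT reagents, pooled, trypsin-digested overnight at 37 °C, streptavidin-enriched, acid-eluted and run on Orbitrap Eclipse LC-MS/MS with FAIMS, with quantification in FragPipe. Three replicates with duplicate channels were used, and any cysteine quantified in only one replicate was excluded.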

log2 ratio of iodoacetamide-alkyne labeling, inactive:
IPO5 C750 (UniProt O00410) 0.102, DDX3X C223 (UniProt O00571) 0.148, PHGDH C281 (UniProt O43175) 0.212, KMT2D C392 (UniProt O14686) 0.0592, UniProt O00506_C357 0.0714, KMT2D C58 (UniProt O14686) 0.276, GTPBP1 C241 (UniProt O00178) -0.0115, EIF3D C196 (UniProt O15371) 0.0311, IRS4 C545 (UniProt O14654) 0.341, IRS4 C522 (UniProt O14654) 0.234, PDLIM1 C283 (UniProt O00151) 0.0113, UniProt O00567_C472 0.305, KDM6A C384 (UniProt O15550) 0.228, HGS C190 (UniProt O14964) 0.00595, INPPL1 C1187 (UniProt O15357) 0.249, MGST3 C56 (UniProt O14880) 0.126, NVL C448 (UniProt O15381) 0.287, IRS4 C206 (UniProt O14654) 0.141, NDC80 C449 (UniProt O14777) -0.116, PIK3R2 C396 (UniProt O00459) -0.0204, PHGDH C369 (UniProt O43175) 0.501, PGRMC2 C159 (UniProt O15173) 0.325, DFFA C38 (UniProt O00273) 0.126, SETD1A C243 (UniProt O15047) 0.182, TRAFD1 C482 (UniProt O14545) 0.66, NDUFAB1 C140 (UniProt O14561) 0.28, UniProt O43159_C332 -0.0304, NDUFS8 C117 (UniProt O00217) -0.0403, XPO1 C1070 (UniProt O14980) 0.206, SMCHD1 C897 (UniProt A6NHR9) 0.368, UniProt B3KU38_C358 0.312, BCAT2 C342 (UniProt O15382) -0.00336, XPO1 C119 (UniProt O14980) 0.373, ZZEF1 C1259 (UniProt O43149) 0.433, AGPS C214 (UniProt O00116) -0.117, DFFA C165 (UniProt O00273) 0.165, PJA2 C224 (UniProt O43164) -0.122
